Laboratory results as given in paper PMC7695430.
These are yes or no findings as the source states them, for the method shown. Binding seen in cells or lysates may run through a third protein. Some results given as binding are weak or reduced against the parent protein; the word gives no strength.

Protein sequences, listed by entry. Tags and fused reporters are not part of them.
UniProt Q00534: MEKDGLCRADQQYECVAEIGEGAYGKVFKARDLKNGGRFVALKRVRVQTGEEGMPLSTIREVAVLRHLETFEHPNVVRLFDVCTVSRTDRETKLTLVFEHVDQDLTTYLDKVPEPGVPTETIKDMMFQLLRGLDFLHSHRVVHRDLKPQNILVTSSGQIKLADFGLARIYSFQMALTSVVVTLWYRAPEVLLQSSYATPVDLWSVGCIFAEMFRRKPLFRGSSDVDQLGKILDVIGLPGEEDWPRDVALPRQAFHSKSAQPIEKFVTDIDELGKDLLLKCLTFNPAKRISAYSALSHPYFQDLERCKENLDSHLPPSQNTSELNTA

Biological target: T1, MEX3A (human) (UniProt A1L020)
T1 sequence: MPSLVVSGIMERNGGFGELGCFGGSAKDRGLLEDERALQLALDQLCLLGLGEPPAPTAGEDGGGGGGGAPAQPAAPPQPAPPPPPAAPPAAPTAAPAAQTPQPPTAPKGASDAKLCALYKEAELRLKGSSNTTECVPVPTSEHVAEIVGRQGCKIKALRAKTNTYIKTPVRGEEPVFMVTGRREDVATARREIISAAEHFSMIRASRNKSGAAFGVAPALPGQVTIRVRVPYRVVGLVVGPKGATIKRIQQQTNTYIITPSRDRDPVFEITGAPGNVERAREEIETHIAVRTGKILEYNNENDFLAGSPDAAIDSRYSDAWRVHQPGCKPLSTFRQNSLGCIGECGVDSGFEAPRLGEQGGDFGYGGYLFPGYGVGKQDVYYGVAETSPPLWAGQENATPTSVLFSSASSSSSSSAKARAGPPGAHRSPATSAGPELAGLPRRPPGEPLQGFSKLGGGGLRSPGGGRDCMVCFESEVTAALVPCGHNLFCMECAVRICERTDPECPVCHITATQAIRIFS
Experiment: co-IP; not described in the methods; cells, precipitating antibody and bait are not told

binding: binds
Substance: CDK6 (from UniProt Q00534 1-326)
